Source: the supplement of paper PMC6411743
± gives the standard deviation of the averaged measurements. This is a selection; strong and weak results do not stand in their true shares. Most values lie at the level of the controls, where differences are scatter.

By UniProt entry, the sequences of proteins in these tests, tags left out. Where a name states a change or a piece, a line headed by the entry shows the natural chain unless it says otherwise.
UniProt Q9H936: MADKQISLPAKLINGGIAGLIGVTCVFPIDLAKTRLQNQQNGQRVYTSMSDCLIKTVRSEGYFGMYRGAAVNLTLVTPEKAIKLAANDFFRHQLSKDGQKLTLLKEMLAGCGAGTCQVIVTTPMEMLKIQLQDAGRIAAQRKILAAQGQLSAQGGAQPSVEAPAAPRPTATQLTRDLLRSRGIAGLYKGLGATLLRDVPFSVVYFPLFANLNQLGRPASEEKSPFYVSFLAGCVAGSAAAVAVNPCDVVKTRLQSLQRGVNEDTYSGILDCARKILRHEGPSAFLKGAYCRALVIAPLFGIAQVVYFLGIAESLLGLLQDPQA
UniProt Q9H9F9, whole entry: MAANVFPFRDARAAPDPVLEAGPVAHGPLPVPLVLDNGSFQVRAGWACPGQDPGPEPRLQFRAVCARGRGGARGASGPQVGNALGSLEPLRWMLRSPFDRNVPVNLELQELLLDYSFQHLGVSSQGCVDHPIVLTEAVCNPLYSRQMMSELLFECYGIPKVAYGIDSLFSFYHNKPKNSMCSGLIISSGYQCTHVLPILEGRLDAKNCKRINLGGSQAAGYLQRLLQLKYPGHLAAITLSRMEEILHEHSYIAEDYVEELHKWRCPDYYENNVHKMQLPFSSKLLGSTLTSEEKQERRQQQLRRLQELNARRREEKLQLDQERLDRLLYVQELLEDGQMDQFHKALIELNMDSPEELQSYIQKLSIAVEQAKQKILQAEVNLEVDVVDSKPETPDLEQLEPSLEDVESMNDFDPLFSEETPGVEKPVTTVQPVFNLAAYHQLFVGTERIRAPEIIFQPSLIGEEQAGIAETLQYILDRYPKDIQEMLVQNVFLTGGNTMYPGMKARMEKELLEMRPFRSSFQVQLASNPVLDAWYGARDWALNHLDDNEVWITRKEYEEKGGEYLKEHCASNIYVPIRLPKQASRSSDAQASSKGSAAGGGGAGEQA
UniProt Q9H8V3: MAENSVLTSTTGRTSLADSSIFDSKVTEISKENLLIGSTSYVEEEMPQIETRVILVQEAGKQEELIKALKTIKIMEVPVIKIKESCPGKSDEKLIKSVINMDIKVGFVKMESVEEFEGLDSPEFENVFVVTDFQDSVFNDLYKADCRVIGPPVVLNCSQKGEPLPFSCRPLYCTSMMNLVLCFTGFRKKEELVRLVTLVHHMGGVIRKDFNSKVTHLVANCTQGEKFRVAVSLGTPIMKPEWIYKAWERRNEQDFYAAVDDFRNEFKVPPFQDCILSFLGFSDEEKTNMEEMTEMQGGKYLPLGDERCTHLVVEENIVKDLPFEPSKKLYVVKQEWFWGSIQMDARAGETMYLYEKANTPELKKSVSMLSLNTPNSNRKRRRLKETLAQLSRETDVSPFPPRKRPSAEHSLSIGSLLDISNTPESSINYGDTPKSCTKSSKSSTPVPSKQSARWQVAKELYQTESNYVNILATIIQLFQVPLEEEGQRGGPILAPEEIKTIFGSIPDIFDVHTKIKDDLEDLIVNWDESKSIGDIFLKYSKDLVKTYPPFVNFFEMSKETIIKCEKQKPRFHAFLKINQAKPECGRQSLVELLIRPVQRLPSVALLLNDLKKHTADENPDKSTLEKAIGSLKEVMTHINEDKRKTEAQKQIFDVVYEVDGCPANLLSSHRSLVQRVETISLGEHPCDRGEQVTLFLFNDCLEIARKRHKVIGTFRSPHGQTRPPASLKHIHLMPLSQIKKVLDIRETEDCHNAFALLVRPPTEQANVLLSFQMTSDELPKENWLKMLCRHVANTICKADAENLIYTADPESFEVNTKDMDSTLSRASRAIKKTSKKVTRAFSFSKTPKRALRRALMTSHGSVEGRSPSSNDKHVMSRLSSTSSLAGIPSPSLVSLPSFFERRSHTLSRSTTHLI
UniProt Q9GZR2: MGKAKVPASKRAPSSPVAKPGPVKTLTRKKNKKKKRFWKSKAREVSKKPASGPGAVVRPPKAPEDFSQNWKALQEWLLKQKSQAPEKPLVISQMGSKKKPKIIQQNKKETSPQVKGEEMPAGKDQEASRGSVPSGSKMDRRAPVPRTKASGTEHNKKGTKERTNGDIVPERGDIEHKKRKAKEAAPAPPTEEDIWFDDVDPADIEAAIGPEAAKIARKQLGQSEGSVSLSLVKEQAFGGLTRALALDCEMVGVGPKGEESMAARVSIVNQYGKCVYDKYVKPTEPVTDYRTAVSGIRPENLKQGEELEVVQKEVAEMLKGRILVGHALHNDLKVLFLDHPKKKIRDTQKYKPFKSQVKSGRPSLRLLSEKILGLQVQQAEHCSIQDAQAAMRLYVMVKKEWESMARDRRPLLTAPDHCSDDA
UniProt Q9HB90, whole entry: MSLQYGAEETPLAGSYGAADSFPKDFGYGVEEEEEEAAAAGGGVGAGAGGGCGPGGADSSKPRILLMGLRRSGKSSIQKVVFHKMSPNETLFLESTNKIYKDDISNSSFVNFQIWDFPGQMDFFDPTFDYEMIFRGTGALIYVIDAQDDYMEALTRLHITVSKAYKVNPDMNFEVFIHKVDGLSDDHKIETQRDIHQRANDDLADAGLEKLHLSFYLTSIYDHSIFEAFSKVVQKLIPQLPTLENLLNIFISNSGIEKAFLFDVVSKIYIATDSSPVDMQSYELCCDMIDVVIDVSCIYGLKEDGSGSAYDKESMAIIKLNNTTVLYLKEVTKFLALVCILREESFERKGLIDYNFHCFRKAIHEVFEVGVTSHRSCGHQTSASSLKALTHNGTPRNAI
UniProt Q9H267: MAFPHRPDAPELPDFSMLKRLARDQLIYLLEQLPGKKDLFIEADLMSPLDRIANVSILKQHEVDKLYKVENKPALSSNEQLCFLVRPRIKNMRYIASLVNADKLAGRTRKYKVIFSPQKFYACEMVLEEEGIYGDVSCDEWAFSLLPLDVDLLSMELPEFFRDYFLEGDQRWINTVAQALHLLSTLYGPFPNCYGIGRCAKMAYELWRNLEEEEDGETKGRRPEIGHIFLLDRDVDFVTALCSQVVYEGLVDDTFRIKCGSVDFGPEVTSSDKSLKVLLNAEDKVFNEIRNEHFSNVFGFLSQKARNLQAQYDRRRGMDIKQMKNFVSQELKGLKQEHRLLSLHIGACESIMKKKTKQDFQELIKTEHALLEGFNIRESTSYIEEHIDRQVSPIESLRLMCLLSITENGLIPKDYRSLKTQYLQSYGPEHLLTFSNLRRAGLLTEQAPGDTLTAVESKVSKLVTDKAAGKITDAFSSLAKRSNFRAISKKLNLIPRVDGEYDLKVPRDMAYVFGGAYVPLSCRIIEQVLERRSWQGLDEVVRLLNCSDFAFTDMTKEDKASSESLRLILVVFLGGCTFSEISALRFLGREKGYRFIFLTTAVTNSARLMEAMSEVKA
UniProt Q9H9B1: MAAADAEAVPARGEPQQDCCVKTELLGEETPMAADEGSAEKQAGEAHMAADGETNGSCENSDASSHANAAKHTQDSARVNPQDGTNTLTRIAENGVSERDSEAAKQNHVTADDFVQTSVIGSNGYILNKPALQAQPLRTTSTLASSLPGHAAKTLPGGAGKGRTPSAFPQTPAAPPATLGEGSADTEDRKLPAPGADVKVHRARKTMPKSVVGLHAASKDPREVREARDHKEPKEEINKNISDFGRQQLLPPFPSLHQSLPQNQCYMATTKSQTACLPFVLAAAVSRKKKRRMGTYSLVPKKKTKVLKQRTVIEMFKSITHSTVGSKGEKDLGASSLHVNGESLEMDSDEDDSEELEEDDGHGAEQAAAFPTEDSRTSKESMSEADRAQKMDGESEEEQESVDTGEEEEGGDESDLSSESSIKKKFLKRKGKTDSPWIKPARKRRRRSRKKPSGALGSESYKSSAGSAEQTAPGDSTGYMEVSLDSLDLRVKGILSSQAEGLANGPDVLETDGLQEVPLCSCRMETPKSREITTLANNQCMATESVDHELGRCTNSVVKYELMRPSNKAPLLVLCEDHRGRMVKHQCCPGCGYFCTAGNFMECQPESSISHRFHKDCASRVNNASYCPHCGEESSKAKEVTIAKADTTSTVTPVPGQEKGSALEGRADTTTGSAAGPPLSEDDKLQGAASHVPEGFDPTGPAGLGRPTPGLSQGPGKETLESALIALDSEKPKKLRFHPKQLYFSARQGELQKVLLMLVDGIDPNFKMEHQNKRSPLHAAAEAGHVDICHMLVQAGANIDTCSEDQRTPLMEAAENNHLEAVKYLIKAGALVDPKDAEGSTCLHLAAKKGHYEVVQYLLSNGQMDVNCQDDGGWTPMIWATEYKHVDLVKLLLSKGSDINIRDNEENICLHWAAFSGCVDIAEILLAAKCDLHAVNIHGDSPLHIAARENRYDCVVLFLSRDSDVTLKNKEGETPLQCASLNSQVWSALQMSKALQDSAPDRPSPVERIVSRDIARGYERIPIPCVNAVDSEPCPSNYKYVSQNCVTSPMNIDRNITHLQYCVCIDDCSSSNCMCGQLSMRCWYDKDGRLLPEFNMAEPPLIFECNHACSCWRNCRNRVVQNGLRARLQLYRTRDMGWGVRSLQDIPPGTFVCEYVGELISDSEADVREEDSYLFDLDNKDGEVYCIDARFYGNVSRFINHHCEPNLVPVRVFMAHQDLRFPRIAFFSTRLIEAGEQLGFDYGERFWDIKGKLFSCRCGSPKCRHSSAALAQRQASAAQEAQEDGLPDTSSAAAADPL
UniProt Q9H1I8: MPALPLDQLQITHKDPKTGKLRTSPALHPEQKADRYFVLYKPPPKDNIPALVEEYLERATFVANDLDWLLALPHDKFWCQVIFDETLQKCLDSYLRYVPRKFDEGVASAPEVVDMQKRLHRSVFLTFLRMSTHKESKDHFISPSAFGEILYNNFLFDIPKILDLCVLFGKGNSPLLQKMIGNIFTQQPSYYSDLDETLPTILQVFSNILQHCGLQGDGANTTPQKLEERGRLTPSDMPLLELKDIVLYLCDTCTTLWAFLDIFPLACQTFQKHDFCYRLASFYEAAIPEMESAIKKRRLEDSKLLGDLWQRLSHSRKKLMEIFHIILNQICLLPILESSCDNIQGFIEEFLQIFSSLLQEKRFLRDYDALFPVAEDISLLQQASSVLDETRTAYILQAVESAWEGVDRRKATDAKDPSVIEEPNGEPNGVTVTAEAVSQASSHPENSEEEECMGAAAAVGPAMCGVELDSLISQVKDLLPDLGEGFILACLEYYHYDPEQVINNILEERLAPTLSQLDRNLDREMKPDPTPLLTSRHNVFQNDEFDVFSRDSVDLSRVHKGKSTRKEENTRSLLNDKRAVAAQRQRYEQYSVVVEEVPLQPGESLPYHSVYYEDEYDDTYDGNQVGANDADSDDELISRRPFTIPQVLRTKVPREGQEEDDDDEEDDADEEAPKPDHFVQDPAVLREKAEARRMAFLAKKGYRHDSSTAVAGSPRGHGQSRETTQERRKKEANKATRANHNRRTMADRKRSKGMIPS
UniProt Q9HD34: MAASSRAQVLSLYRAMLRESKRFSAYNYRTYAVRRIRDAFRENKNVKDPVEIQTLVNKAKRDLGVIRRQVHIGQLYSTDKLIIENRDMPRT
UniProt Q9NP87, whole entry: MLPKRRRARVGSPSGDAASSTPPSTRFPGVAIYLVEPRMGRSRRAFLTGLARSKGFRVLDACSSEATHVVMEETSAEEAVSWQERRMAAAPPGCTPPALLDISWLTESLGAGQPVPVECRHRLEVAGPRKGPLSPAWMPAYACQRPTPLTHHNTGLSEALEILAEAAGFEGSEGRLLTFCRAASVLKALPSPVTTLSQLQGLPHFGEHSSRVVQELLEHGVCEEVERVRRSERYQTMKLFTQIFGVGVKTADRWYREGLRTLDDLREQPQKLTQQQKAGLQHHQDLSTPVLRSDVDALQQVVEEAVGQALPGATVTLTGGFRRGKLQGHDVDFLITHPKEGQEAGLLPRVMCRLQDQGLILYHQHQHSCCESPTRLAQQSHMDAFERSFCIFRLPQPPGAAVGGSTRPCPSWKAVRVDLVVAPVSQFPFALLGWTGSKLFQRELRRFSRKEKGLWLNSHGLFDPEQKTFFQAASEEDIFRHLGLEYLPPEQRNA
UniProt Q9H3H5: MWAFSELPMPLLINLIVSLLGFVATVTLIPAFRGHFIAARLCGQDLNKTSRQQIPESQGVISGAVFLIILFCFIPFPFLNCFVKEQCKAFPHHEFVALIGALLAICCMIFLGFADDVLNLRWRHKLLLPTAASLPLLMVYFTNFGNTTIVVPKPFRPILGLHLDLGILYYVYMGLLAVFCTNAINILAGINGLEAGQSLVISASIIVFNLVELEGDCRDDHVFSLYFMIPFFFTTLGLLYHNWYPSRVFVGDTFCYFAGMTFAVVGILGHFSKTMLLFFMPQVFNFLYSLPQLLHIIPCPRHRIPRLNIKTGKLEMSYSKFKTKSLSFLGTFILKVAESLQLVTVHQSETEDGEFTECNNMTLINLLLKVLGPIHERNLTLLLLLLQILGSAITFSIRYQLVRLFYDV

Compound: Nc1ncnc2c1ncn2[C@@H]1O[C@H](COP(=O)(O)OP(=O)(O)OP(=O)(O)O)[C@@H](O)[C@H]1O [adenosine triphosphate]
Experiment: NP40-soluble protein abundance relative to vehicle (solubility fold change) (ratio); higher = more soluble protein in presence of ATP
Outline: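 Each value is a fold change relative to the detergent-processed vehicle, calculated per replicate from vsn-normalised intensities. Jurkat crude lysate received eight concentrations (0.1 to 10 mM) for 10 min at room temperature and 3 min at 37 °C, then was solubilised in 0.8% NP40 with benzonase (60 min, 4 °C). The ultracentrifuged supernatant was TMT-labelled and run by LC-MS/MS in three independent experiments.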

**Q.** TMEM165 (UniProt Q9HC07) was tested. Which NP40-soluble protein abundance (concentration: 0.1mM) did it give?
**A.** 0.962 ± 0.061

**Q.** What about the NP40-soluble protein abundance (concentration: 0.5mM) of the same target?
**A.** 0.969 ± 0.11

**Q.** For UniProt Q9C0E8 and related entries, which NP40-soluble protein abundance (concentration: 0.1mM) is on record?
**A.** 0.957 ± 0.022

**Q.** What about the NP40-soluble protein abundance (concentration: 0.5mM) of the same target?
**A.** 0.973 ± 0.025

**Q.** GORASP2 (UniProt Q9H8Y8) was tested. Which NP40-soluble protein abundance (concentration: 0.1mM) did it give?
**A.** 0.984 ± 0.023

**Q.** What about the NP40-soluble protein abundance (concentration: 0.5mM) of the same target?
**A.** 0.966 ± 0.042

**Q.** What does the source list for GAN (UniProt Q9H2C0)?
**A.** NP40-soluble protein abundance (concentration: 0.1mM): 1.05 ± 0.085; NP40-soluble protein abundance (concentration: 0.5mM): 1.02 ± 0.13

**Q.** What does the source list for UniProt Q9H936 and related entries?
**A.** NP40-soluble protein abundance (concentration: 0.1mM): 0.911 ± 0.053; NP40-soluble protein abundance (concentration: 0.5mM): 0.931 ± 0.072

**Q.** Which results are given for ACTR5 (UniProt Q9H9F9)?
**A.** NP40-soluble protein abundance (concentration: 0.1mM): 1.01 ± 0.065; NP40-soluble protein abundance (concentration: 0.5mM): 1.09 ± 0.024

**Q.** What does the source list for UniProt Q9GZT3?
**A.** NP40-soluble protein abundance (concentration: 0.1mM): 0.941 ± 0.064; NP40-soluble protein abundance (concentration: 0.5mM): 0.931 ± 0.12

**Q.** Which NP40-soluble protein abundance (concentration: 0.1mM) does the source give for UniProt Q9C0H2 and related entries here?
**A.** 0.931 ± 0.077

**Q.** And the NP40-soluble protein abundance (concentration: 0.5mM)?
**A.** 0.968 ± 0.045

**Q.** With SLC38A10 (UniProt Q9HBR0) as the target, how does the NP40-soluble protein abundance (concentration: 0.1mM) read?
**A.** 0.946 ± 0.053

**Q.** What about the NP40-soluble protein abundance (concentration: 0.5mM) of the same target?
**A.** 0.835 ± 0.089

**Q.** Which results are given for UniProt Q9H8V3 and related entries?
**A.** NP40-soluble protein abundance (concentration: 0.1mM): 1.09 ± 0.038; NP40-soluble protein abundance (concentration: 0.5mM): 1.06 ± 0.068

**Q.** Which results are given for REXO4 (UniProt Q9GZR2)?
**A.** NP40-soluble protein abundance (concentration: 0.1mM): 1.01 ± 0.05; NP40-soluble protein abundance (concentration: 0.5mM): 1.022 ± 0.0097

**Q.** Which results are given for SEPSECS (UniProt Q9HD40)?
**A.** NP40-soluble protein abundance (concentration: 0.1mM): 0.9982 ± 0.0052; NP40-soluble protein abundance (concentration: 0.5mM): 0.999 ± 0.061

**Q.** With UniProt Q9H773 as the target, how does the NP40-soluble protein abundance (concentration: 0.1mM) read?
**A.** 0.783 ± 0.12

**Q.** And the NP40-soluble protein abundance (concentration: 0.5mM)?
**A.** 0.658 ± 0.087

**Q.** How did the NP40-soluble protein abundance (concentration: 0.1mM) turn out when UniProt Q9H1B7 was run?
**A.** 0.968 ± 0.022

**Q.** What about the NP40-soluble protein abundance (concentration: 0.5mM) of the same target?
**A.** 0.962 ± 0.041

**Q.** CARS2 (UniProt Q9HA77) was tested. Which NP40-soluble protein abundance (concentration: 0.1mM) did it give?
**A.** 1 ± 0.026

**Q.** What about the NP40-soluble protein abundance (concentration: 0.5mM) of the same target?
**A.** 0.972 ± 0.028

**Q.** Which results are given for UniProt Q9H5X1?
**A.** NP40-soluble protein abundance (concentration: 0.1mM): 0.991 ± 0.023; NP40-soluble protein abundance (concentration: 0.5mM): 0.956 ± 0.021

**Q.** Which NP40-soluble protein abundance (concentration: 0.1mM) does the source give for CACYBP (UniProt Q9HB71) here?
**A.** 0.976 ± 0.043

**Q.** What about the NP40-soluble protein abundance (concentration: 0.5mM) of the same target?
**A.** 1.01 ± 0.036

**Q.** How did the NP40-soluble protein abundance (concentration: 0.1mM) turn out when RRAGC (UniProt Q9HB90) was run?
**A.** 1.04 ± 0.14

**Q.** And the NP40-soluble protein abundance (concentration: 0.5mM)?
**A.** 1.1 ± 0.07

**Q.** REEP4 (UniProt Q9H6H4) was tested. Which NP40-soluble protein abundance (concentration: 0.1mM) did it give?
**A.** 1.02 ± 0.061

**Q.** And the NP40-soluble protein abundance (concentration: 0.5mM)?
**A.** 0.996 ± 0.068

**Q.** Which results are given for UniProt Q9H074 and related entries?
**A.** NP40-soluble protein abundance (concentration: 0.1mM): 0.919 ± 0.059; NP40-soluble protein abundance (concentration: 0.5mM): 0.907 ± 0.067

**Q.** What does the source list for PCIF1 (UniProt Q9H4Z3)?
**A.** NP40-soluble protein abundance (concentration: 0.1mM): 1.02 ± 0.027; NP40-soluble protein abundance (concentration: 0.5mM): 1 ± 0.034

**Q.** Which NP40-soluble protein abundance (concentration: 0.1mM) does the source give for RAB33B (UniProt Q9H082) here?
**A.** 1.02 ± 0.029

**Q.** What about the NP40-soluble protein abundance (concentration: 0.5mM) of the same target?
**A.** 0.986 ± 0.063

**Q.** For VPS33B (UniProt Q9H267), which NP40-soluble protein abundance (concentration: 0.1mM) is on record?
**A.** 1.04 ± 0.048

**Q.** And the NP40-soluble protein abundance (concentration: 0.5mM)?
**A.** 1.03 ± 0.082

**Q.** Which results are given for ADNP (UniProt Q9H2P0)?
**A.** NP40-soluble protein abundance (concentration: 0.1mM): 0.991 ± 0.036; NP40-soluble protein abundance (concentration: 0.5mM): 1.03 ± 0.043

**Q.** How did the NP40-soluble protein abundance (concentration: 0.1mM) turn out when ANKZF1 (UniProt Q9H8Y5) was run?
**A.** 1.04 ± 0.032

**Q.** What about the NP40-soluble protein abundance (concentration: 0.5mM) of the same target?
**A.** 1.03 ± 0.054

**Q.** How did the NP40-soluble protein abundance (concentration: 0.1mM) turn out when PHAX (UniProt Q9H814) was run?
**A.** 0.997 ± 0.042

**Q.** And the NP40-soluble protein abundance (concentration: 0.5mM)?
**A.** 1.01 ± 0.061

**Q.** With MRPL46 (UniProt Q9H2W6) as the target, how does the NP40-soluble protein abundance (concentration: 0.1mM) read?
**A.** 0.922 ± 0.14

**Q.** And the NP40-soluble protein abundance (concentration: 0.5mM)?
**A.** 0.888 ± 0.15

**Q.** Which NP40-soluble protein abundance (concentration: 0.1mM) does the source give for UniProt Q9H7E2-3 here?
**A.** 0.996 ± 0.059

**Q.** And the NP40-soluble protein abundance (concentration: 0.5mM)?
**A.** 0.985 ± 0.034

**Q.** What does the source list for EHMT1 (UniProt Q9H9B1)?
**A.** NP40-soluble protein abundance (concentration: 0.1mM): 0.91327 ± 0.00072; NP40-soluble protein abundance (concentration: 0.5mM): 0.9685 ± 0.0016

**Q.** Which results are given for UniProt Q9H1I8 and related entries?
**A.** NP40-soluble protein abundance (concentration: 0.1mM): 1.02 ± 0.26; NP40-soluble protein abundance (concentration: 0.5mM): 0.953 ± 0.21

**Q.** With LYRM4 (UniProt Q9HD34) as the target, how does the NP40-soluble protein abundance (concentration: 0.1mM) read?
**A.** 0.917 ± 0.072

**Q.** And the NP40-soluble protein abundance (concentration: 0.5mM)?
**A.** 0.943 ± 0.052

**Q.** With UniProt Q9H6U6 and related entries as the target, how does the NP40-soluble protein abundance (concentration: 0.1mM) read?
**A.** 1.02 ± 0.059

**Q.** And the NP40-soluble protein abundance (concentration: 0.5mM)?
**A.** 1.01 ± 0.12

**Q.** How did the NP40-soluble protein abundance (concentration: 0.1mM) turn out when YTHDC2 (UniProt Q9H6S0) was run?
**A.** 1.12 ± 0.032

**Q.** What about the NP40-soluble protein abundance (concentration: 0.5mM) of the same target?
**A.** 1.25 ± 0.029

**Q.** UniProt Q9NP87 was tested. Which NP40-soluble protein abundance (concentration: 0.1mM) did it give?
**A.** 1.05 ± 0.043

**Q.** And the NP40-soluble protein abundance (concentration: 0.5mM)?
**A.** 1.04 ± 0.14

**Q.** PTGES2 (UniProt Q9H7Z7) was tested. Which NP40-soluble protein abundance (concentration: 0.1mM) did it give?
**A.** 0.965 ± 0.031

**Q.** And the NP40-soluble protein abundance (concentration: 0.5mM)?
**A.** 0.959 ± 0.013

**Q.** For UniProt Q9H5V9 and related entries, which NP40-soluble protein abundance (concentration: 0.1mM) is on record?
**A.** 0.978 ± 0.013

**Q.** And the NP40-soluble protein abundance (concentration: 0.5mM)?
**A.** 0.984 ± 0.067

**Q.** How did the NP40-soluble protein abundance (concentration: 0.1mM) turn out when TMEM168 (UniProt Q9H0V1) was run?
**A.** 1.13 ± 0.03

**Q.** What about the NP40-soluble protein abundance (concentration: 0.5mM) of the same target?
**A.** 1.15 ± 0.053

**Q.** With UniProt Q9H3H5 and related entries as the target, how does the NP40-soluble protein abundance (concentration: 0.1mM) read?
**A.** 1.08 ± 0.13

**Q.** And the NP40-soluble protein abundance (concentration: 0.5mM)?
**A.** 1.02 ± 0.081

**Q.** UniProt Q9HAU0 and related entries was tested. Which NP40-soluble protein abundance (concentration: 0.1mM) did it give?
**A.** 0.956 ± 0.085

**Q.** And the NP40-soluble protein abundance (concentration: 0.5mM)?
**A.** 0.958 ± 0.086

**Q.** Which results are given for UniProt Q9C0F1?
**A.** NP40-soluble protein abundance (concentration: 0.1mM): 0.993 ± 0.09; NP40-soluble protein abundance (concentration: 0.5mM): 0.922 ± 0.028

**Q.** What does the source list for UniProt Q9H832 and related entries?
**A.** NP40-soluble protein abundance (concentration: 0.1mM): 1.01 ± 0.021; NP40-soluble protein abundance (concentration: 0.5mM): 0.969 ± 0.036

**Q.** How did the NP40-soluble protein abundance (concentration: 0.1mM) turn out when UniProt Q9H6R4 and related entries was run?
**A.** 0.982 ± 0.022

**Q.** What about the NP40-soluble protein abundance (concentration: 0.5mM) of the same target?
**A.** 0.919 ± 0.05

**Q.** What about the NP40-soluble protein abundance (concentration: 1mM) of the same target?
**A.** 1.08 ± 0.049

**Q.** What about the NP40-soluble protein abundance (concentration: 2mM) of the same target?
**A.** 1.03 ± 0.018

**Q.** And the NP40-soluble protein abundance (concentration: 4mM)?
**A.** 1.28 ± 0.027

**Q.** And the NP40-soluble protein abundance (concentration: 6mM)?
**A.** 1.31 ± 0.041

**Q.** What about the NP40-soluble protein abundance (concentration: 8mM) of the same target?
**A.** 1.39 ± 0.15

**Q.** And the NP40-soluble protein abundance (concentration: 10mM)?
**A.** 1.72 ± 0.15
